# Test results published in article PMC7819943, “Rice protein-binding microarrays: a tool to detect cis-acting elements near promoter regions in rice”.
# Chains of the proteins cited; added tags and fusions are not shown.
# UniProt Q0JBA9, entry or part of it: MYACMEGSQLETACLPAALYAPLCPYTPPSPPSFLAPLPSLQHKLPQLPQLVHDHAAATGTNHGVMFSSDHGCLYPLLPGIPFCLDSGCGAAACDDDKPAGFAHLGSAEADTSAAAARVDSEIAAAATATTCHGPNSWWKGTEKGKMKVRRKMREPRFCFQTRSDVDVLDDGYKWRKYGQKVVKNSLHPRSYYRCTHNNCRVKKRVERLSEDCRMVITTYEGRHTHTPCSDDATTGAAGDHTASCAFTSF
# This is one part of the list.
# Biological target: OsWRKY34 (Oryza sativa, UniProt Q0JBA9 1-250)
# Assay: protein-binding microarray (RPBM); PBS, 2% BSA, 51.3 ng/ul salmon testes DNA, 50 uM zinc acetate, 200 nM TF, 25 C, 1 h; high values mean tight binding
# Conditions: protein: recombinant; tags: N-terminal polyhistidine and DsRed monomer fusion (pET32a); label: CyDye5-dUTP incorporated in the synthesized complementary strand; 3' TTTTT single-stranded linker to array surface; dsDNA, one strand shown
# Procedure, shortened: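 Transcription factors were made in E. coli BL21-CodonPlus as N-terminal fusions to a polyhistidine tag and DsRed, then purified on Ni–NTA. After primer extension with Cy5-dUTP and blocking with 2% BSA, a custom Agilent array was exposed for 1 h at 25 °C to 200 nM protein in PBS, 2% BSA, salmon testes DNA and 50 µM zinc acetate. Washed arrays were scanned on an Axon 4000B, and the binding signal is per-feature fluorescence intensity in arbitrary units.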
row,Sequence,binding signal
1,TTTTCACCCTGTTTGCACTTGGCACTTTTACAATTCACACCGGAGTCACCTAGTGCAG,9840 fluorescence intensity (a.u.)
2,TTCTTGGTGTCGGTGTGCCTGGTGCTGGTGACGCGCCATGCGGAGTCACCTAGTGCAG,8120 fluorescence intensity (a.u.)
3,CTAGCACAAGACACCAAGCACCCATGCACACGCTTCCTATCGGAGTCACCTAGTGCAG,9180 fluorescence intensity (a.u.)
4,TCCCCGAATTCTCCCGCAGCCCAACATTTCATTCAACCACCGGAGTCACCTAGTGCAG,10700 fluorescence intensity (a.u.)
5,TACTTTACTTTACATCATTTACTAAGTACATGTACTTTTTCGGAGTCACCTAGTGCAG,8860 fluorescence intensity (a.u.)
6,TTTCCTTTCACCTTTGTCTAGTGGTATTCTCTGATCAGGCCGGAGTCACCTAGTGCAG,10100 fluorescence intensity (a.u.)
7,TCAAGACTTATTAATTGGCCGTTTTTCCCTTTTGTCTCGGCGGAGTCACCTAGTGCAG,8450 fluorescence intensity (a.u.)
8,TTATGTAGCATCCTGAGTTTGACTCCTTTACTTAAAAACGCGGAGTCACCTAGTGCAG,8630 fluorescence intensity (a.u.)
9,CATCTCTGCCTCACTCTTCTCCACACTAACACCCAAGATGCGGAGTCACCTAGTGCAG,9030 fluorescence intensity (a.u.)
10,TGCGCTTCGCCACTCTCCACCACCCTACGCTCTGGCCTCGCGGAGTCACCTAGTGCAG,8580 fluorescence intensity (a.u.)
11,CAACTCTGCGTCGCCTTCTATTCTCTTCTCTCTTCTCTCTCGGAGTCACCTAGTGCAG,13600 fluorescence intensity (a.u.)
12,GCATATAATTAGTTTACCATGGCTTTAATCAATCATATGCCGGAGTCACCTAGTGCAG,29300 fluorescence intensity (a.u.)
13,TCCTGTGTTCTTGTTGTTGTTCGTCAGAGACGCTGATCGACGGAGTCACCTAGTGCAG,9680 fluorescence intensity (a.u.)
14,CATTATCCGTCCATATTCGCTCTGTTTTCACTCCTACTCACGGAGTCACCTAGTGCAG,12000 fluorescence intensity (a.u.)
15,GTCGGCTGCCTTTTGAAGCTCTCATGACGCATCTTCCTTTCGGAGTCACCTAGTGCAG,8720 fluorescence intensity (a.u.)
16,GAGCTATCCTTGGTTTTTCTGATCCACTGCATGCGCTAGTCGGAGTCACCTAGTGCAG,8830 fluorescence intensity (a.u.)
17,CGTTTGCTGCGTTATCACCTCTCCTTGGCTCTTCTCTTATCGGAGTCACCTAGTGCAG,8740 fluorescence intensity (a.u.)
18,GTTCATTTACTCATTTTTCTGTGGTTGAAAAATACCAAGACGGAGTCACCTAGTGCAG,10200 fluorescence intensity (a.u.)
19,GCCGCCAACGCGCTCAAGGGCCACCTCGTCGCCTTCGGCCCGGAGTCACCTAGTGCAG,8160 fluorescence intensity (a.u.)
20,CACACGGCGACCTCATCGGCTCATCCTCCTCGATTCCGGCCGGAGTCACCTAGTGCAG,8350 fluorescence intensity (a.u.)

# Retrieved one by one from above (2):
row,Sequence,binding signal
2,TTCTTGGTGTCGGTGTGCCTGGTGCTGGTGACGCGCCATGCGGAGTCACCTAGTGCAG,8120 fluorescence intensity (a.u.)
12,GCATATAATTAGTTTACCATGGCTTTAATCAATCATATGCCGGAGTCACCTAGTGCAG,29300 fluorescence intensity (a.u.)

# Next records follow:

row,Sequence,binding signal
1,CTCTCTCTCTCTCTCTCTCTCTGCTGTTTTCTGTATCTGACGGAGTCACCTAGTGCAG,10100 fluorescence intensity (a.u.)
2,GTAAGGTTTAGTTATAAAAATTTTTTCACCGGGTTTCTGACGGAGTCACCTAGTGCAG,11000 fluorescence intensity (a.u.)
3,GCGTTCGTTCCATCCAACACTACAGAAATTTTTAGCGCACCGGAGTCACCTAGTGCAG,8130 fluorescence intensity (a.u.)
4,CGCCGCTGTATCTCCTAGCCCAGGCTGCCCAGCTCTGACACGGAGTCACCTAGTGCAG,8150 fluorescence intensity (a.u.)
5,GGTGGCGCTGCCGCGGTTGACCAATTCTTGTTTCCCGGCTCGGAGTCACCTAGTGCAG,10500 fluorescence intensity (a.u.)
6,CTCTTCATGTCGCCGGCACATATCCACCACCGGCTCCAACCGGAGTCACCTAGTGCAG,8890 fluorescence intensity (a.u.)
7,GGTTCCTCAGTAGTGTGTGTTGTCTGTGCGTGAGCTCCCACGGAGTCACCTAGTGCAG,13000 fluorescence intensity (a.u.)
8,AATCACTAGTTCCTGTTCTGTACTTTTGAGGGAGAGTCGACGGAGTCACCTAGTGCAG,8290 fluorescence intensity (a.u.)
9,GGATCTCGCATCTCCTCTTAACCATGGGCTGTGAGCGACGCGGAGTCACCTAGTGCAG,8530 fluorescence intensity (a.u.)
10,CCTCTCCTCTTCTTCTCTCTTCACTCGTGTTGAAATTGAACGGAGTCACCTAGTGCAG,8450 fluorescence intensity (a.u.)
11,CTCTTTTCTGCTGTACGATCATTCAGTATCCACGTGCTTACGGAGTCACCTAGTGCAG,8880 fluorescence intensity (a.u.)
12,ATTTCCCGACCTTATAGCAGGTACAATAACAGACTATTAGCGGAGTCACCTAGTGCAG,8380 fluorescence intensity (a.u.)
13,GCTGAGTCTATGGTTTTTGTGGGCCATTGTGCTATCGATGCGGAGTCACCTAGTGCAG,9850 fluorescence intensity (a.u.)
14,GGTGAGCTGGCTTTTCCACACTTCTAATTTCCTAAACTCACGGAGTCACCTAGTGCAG,8810 fluorescence intensity (a.u.)
15,CTCGTCTCCTCCGCTCCTTGCGCCATCTCGCGGCTGAACACGGAGTCACCTAGTGCAG,9180 fluorescence intensity (a.u.)
16,ACCCGCATAAAAACCCTCTTGTTAGTGTATTTTCTACCTGCGGAGTCACCTAGTGCAG,8730 fluorescence intensity (a.u.)
17,CGCTTGTGTTATTTGTCAGTTTACCATCTCAGTTTTCTTACGGAGTCACCTAGTGCAG,9080 fluorescence intensity (a.u.)
18,TGGTTCATACAATTCAATCATTTCGTTGTCTAATTTTATTCGGAGTCACCTAGTGCAG,11200 fluorescence intensity (a.u.)
19,GATCAGTGGGGCGTGGGTACAATCACAGATTGCCGAAATTCGGAGTCACCTAGTGCAG,13500 fluorescence intensity (a.u.)
20,ACTTTTTAGTGCGTATTTGACTATTCGTCTTATTTAAAAACGGAGTCACCTAGTGCAG,9800 fluorescence intensity (a.u.)

# 2 neighbouring entries from above, quoted:
row,Sequence,binding signal
2,GTAAGGTTTAGTTATAAAAATTTTTTCACCGGGTTTCTGACGGAGTCACCTAGTGCAG,11000 fluorescence intensity (a.u.)
3,GCGTTCGTTCCATCCAACACTACAGAAATTTTTAGCGCACCGGAGTCACCTAGTGCAG,8130 fluorescence intensity (a.u.)

# (continued)

row,Sequence,binding signal
1,AACGGTTGCAGCTCTAATTGAGGGCTTTGTTTAGTTCATGCGGAGTCACCTAGTGCAG,8640 fluorescence intensity (a.u.)
2,ATTCTTGCAGTCGTGTGTGCACCTAGCCATTTTCCTACTGCGGAGTCACCTAGTGCAG,8060 fluorescence intensity (a.u.)
3,GTCTCCTCTTGCAAGGAAATTGTTAAAAGTTCTTCCTTATCGGAGTCACCTAGTGCAG,8940 fluorescence intensity (a.u.)
4,GTTGTGTTGTGATGGATGACTTAATGGAAGTACTTCCGCACGGAGTCACCTAGTGCAG,8930 fluorescence intensity (a.u.)
5,CCTATGTTTTGTGATGGGGATTTAGTTTTATCCTTTTATTCGGAGTCACCTAGTGCAG,9750 fluorescence intensity (a.u.)
6,CTCTCTTCGCGTTGCTGCCTAATGCGGTCTTAAGTGAGTACGGAGTCACCTAGTGCAG,8610 fluorescence intensity (a.u.)
7,TTGGTATGGTATCTTGTTTCTCTGGCCAGAATCTGCACCACGGAGTCACCTAGTGCAG,10400 fluorescence intensity (a.u.)
8,CATCTTCTTCGTGTGTGCAGTGTGCGAGTAACTCGACTCGCGGAGTCACCTAGTGCAG,9390 fluorescence intensity (a.u.)
9,ACGCGGTGCGACGACTCCGCCGAACACGAATACTTCTCCTCGGAGTCACCTAGTGCAG,8940 fluorescence intensity (a.u.)
10,CCACATCCCATTATACAAGACTGTGGTATTTCCTCTGAGTCGGAGTCACCTAGTGCAG,9080 fluorescence intensity (a.u.)
11,CCGTTGCTGCCCATTTGCATCCTGCAGCATATTCCTGTCCCGGAGTCACCTAGTGCAG,9730 fluorescence intensity (a.u.)
12,CATACCAATACGGCCAATTGGCAACTGCTCATCGGAATATCGGAGTCACCTAGTGCAG,8280 fluorescence intensity (a.u.)
13,GGTAGGGCTGCCGCCGGTGGGTAGGGGTGGTGGATTTTTTCGGAGTCACCTAGTGCAG,14400 fluorescence intensity (a.u.)
14,ATATTGCATTTTGCAGTCTTTGCTTTTCAGTTACGTTCTCCGGAGTCACCTAGTGCAG,11900 fluorescence intensity (a.u.)
15,GTAAAATTGCATCCCGACCGGTCCCCAACTCTGACTGTCCCGGAGTCACCTAGTGCAG,8240 fluorescence intensity (a.u.)
16,CATTTTTCGATTTTCGTTGCTCGAGCGCGCTCATTTCCCTCGGAGTCACCTAGTGCAG,11800 fluorescence intensity (a.u.)
17,GCACAATACGCCCATGTCATGCGTTAGTTTCGAGCCAATTCGGAGTCACCTAGTGCAG,9430 fluorescence intensity (a.u.)
18,ATATATATAACACAGGCATCCACATCTTCCTTTTTCTCAACGGAGTCACCTAGTGCAG,9850 fluorescence intensity (a.u.)
19,GTCTTTGTTGCTTCCTGCGGTAAGTTTAACTGTTCTACATCGGAGTCACCTAGTGCAG,9890 fluorescence intensity (a.u.)
20,TTAATACATTATTATAACCACTGTTGTCGTTGCCGAGGTCCGGAGTCACCTAGTGCAG,8310 fluorescence intensity (a.u.)
